Results as given in PubChem BioAssay AID1439 (NMMLSC, 2008).
Screen size: about 220,000 compounds; about 770 (0.35%) were called active. The shares of active, inactive and inconclusive entries below differ from those in the screen. Cut-off read from the data, not from the text of the source: active = binding response below about 49% or above about 150%; inconclusive = no clear call, values can overlap the other calls; inactive = in between.

Amino acid sequences for entries named in this document (tags omitted).
UniProt P09471, whole entry, looked up: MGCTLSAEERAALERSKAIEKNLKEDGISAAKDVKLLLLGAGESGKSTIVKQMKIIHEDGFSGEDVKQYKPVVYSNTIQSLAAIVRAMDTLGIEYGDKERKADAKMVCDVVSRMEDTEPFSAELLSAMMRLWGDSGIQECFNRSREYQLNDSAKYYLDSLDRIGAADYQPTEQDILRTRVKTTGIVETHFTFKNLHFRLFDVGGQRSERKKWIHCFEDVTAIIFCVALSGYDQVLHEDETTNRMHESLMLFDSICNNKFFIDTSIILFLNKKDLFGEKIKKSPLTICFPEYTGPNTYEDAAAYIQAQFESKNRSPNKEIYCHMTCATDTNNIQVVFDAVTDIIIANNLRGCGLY

The compounds below were run against Guanine nucleotide-binding protein G(o) subunit alpha (Homo sapiens) (UniProt P09471) (assay: RGS7-Galphao binding modulators, primary screen, biochemical, multiplexed bead flow cytometry (AID 1439;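 note: fluorescent Galphao held in activated GDP-AlF4 state binding bead-coupled RGS7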)). Settings: at 10 µM, actives lie on both sides.

Row | SMILES | binding response (% of control)
1 | O=S(=O)(Nc1cccc(CO)c1)c1cccs1 | inconclusive: 79.5%
2 | COc1ccc(NC(=O)CSc2ccccn2)cc1OC | inactive: 99.1%
3 | O=[N+]([O-])c1ccc(N2CCCCC2)nc1N1CCCCC1 | inconclusive: 116%
4 | COc1ccc(OCc2nnc(SCC(=O)c3c(N)n(C)c(=O)n(C)c3=O)n2-c2ccccc2F)cc1 | inconclusive: 108%
5 | CCOC(=O)c1ccc(NC(=O)c2nc[nH]c2C(=O)N(CC)CC)cc1 | inconclusive: 129%
6 | Cc1ccc(-n2c(=O)c3ccccc3n(CC(=O)C(C)(C)C)c2=O)cc1 | inactive: 104%
7 | COc1ccccc1NC(=O)Nc1nnc(CC(=O)Nc2ccccc2C)s1 | inconclusive: 91.5%
8 | CN(C(=O)CSc1nnc(-c2ccco2)n1N)C1CCCCC1 | inconclusive: 100%
9 | Cc1cc(C)c2nc3sc(C(=O)N4CCOCC4)c(N)c3cc2c1 | inconclusive: 71.7%
10 | COc1ccccc1NS(=O)(=O)c1ccc(OC)c(OC)c1 | inactive: 126%
11 | CCN(CCn1cccn1)C(=O)CCc1nnc(C2CCCCC2)o1 | inconclusive: 9.92%
12 | COc1cc(C(=O)NNC(=S)NC(=O)c2ccc(Cl)cc2)cc(OC)c1OC | inactive: 103%
13 | Cc1ccccc1S(=O)c1ccccc1C(=O)O (stereo unspecified) | inconclusive: 110%
14 | C=C(C)Cn1c(SCC(=O)N/N=C/c2ccccc2OCC(=O)O)nnc1-c1ccc(Br)cc1 | inconclusive: 144%
15 | Cc1cccc(-c2n[nH]c(=S)n2/N=C/c2ccc(C)o2)c1 | inactive: 106%
16 | Cn1nc(NC(=O)C(C)(C)C)c2c(F)cccc21 | inconclusive: 47.2%
17 | Cn1c(=O)oc2cc(S(=O)(=O)N3CCC(C(=O)NCC4COc5ccccc5O4)CC3)ccc21 (stereo unspecified) | inactive: 101%
18 | C=C(C)C1CC=C(C)/C(=N\NC(=O)CCC(=O)Nc2ccc(C)c(C)c2)C1 (stereo unspecified) | inconclusive: 116%
19 | Cc1cc(C)n(-c2nnc3c4ccccc4n(C)c3n2)n1 | inconclusive: 103%
20 | Cn1c(=O)c2c(nc(N3CCN(c4ccc([N+](=O)[O-])cc4)CC3)n2C)n(C)c1=O | inconclusive: 49.1%
21 | CCOC(=O)c1[nH]c2ccccc2c1NC(C)=O | inconclusive: 84.2%
22 | Cc1sc2nc(CC(=O)NN)[nH]c(=O)c2c1C | inconclusive: 98.1%
23 | COc1ccc(OC)c(CC(NC(C)=O)C(=O)NC2CCN(c3nnnn3-c3ccccc3)CC2)c1 (stereo unspecified) | inconclusive: 105%

Row | SMILES | binding response (% of control)
24 | CC(C)(C)c1ccc(C2C(C#N)=C(N)Oc3n[nH]c(-c4cccnc4)c32)cc1 (stereo unspecified) | inconclusive: 85.9%
25 | [O-]/C(=C(\C(=S)Nc1ccc(Cl)cc1)[n+]1ccccc1)c1ccc(OC(F)F)cc1 | inconclusive: 92.2%
26 | O=C(Cc1ccccc1)NCC(=O)N1CCCCC1 | inconclusive: 120%
27 | COc1cccc(NC(=S)Nc2ccc(O)cc2)c1 | inconclusive: 66.6%
28 | COC(=O)c1ccccc1C(=O)N1CCCC(C(=O)c2cc(F)ccc2F)C1 (stereo unspecified) | inconclusive: 110%
29 | CCOc1ccc(CCNC(=O)c2cc(C)nn2-c2ccccc2)cc1 | inconclusive: 111%
30 | C=CCn1cnc2c(nnn2-c2ccc(OC)c(OC)c2)c1=O | inconclusive: 104%
31 | COc1cc2c(C#N)c(N3CCCC3)nc(N)c2c(N)n1 | inconclusive: 100%
32 | CC(C)=NNc1nc(-c2ccc([N+](=O)[O-])cc2)cs1 | inconclusive: 124%
33 | O=C1C2C3CC(C2C(=O)N1c1cccc(Cl)c1)[C@H](O)C3O (stereo partly specified) | inconclusive: 77.8%
34 | Cc1nc2cc(C(=O)OCC(=O)Nc3cccc(Cl)c3)ccc2n1-c1ccccc1 | inactive: 99.6%
35 | O=C(CCCCl)NC(=S)Nc1ccc(CN2CCOCC2)cc1 | inconclusive: -50.8%
36 | O=C(COc1c(Br)cc(Br)c2cccnc12)N1CCCCC1 | inconclusive: 84.8%
37 | N#CCNc1ccc([N+](=O)[O-])cc1C#N | inconclusive: 100%
38 | CCc1cc2ccccc2nc1SCC(=O)Nc1cc(C)on1 | inactive: 105%
39 | Cc1ccc(OCc2nnc(SC(C)C(=O)O)n2Cc2ccccc2)cc1 (stereo unspecified) | inactive: 101%
40 | O=c1cc(N=Nc2ccc(Cl)cc2)[nH]c(=O)[nH]1 | inconclusive: 157%
41 | CC1=NN(c2ccccc2)C(=O)C1N=Nc1ccc(S(N)(=O)=O)cc1 (stereo unspecified) | inconclusive: 112%
42 | O=C(Cc1ccc(Cl)cc1)Nc1ccc(SC(F)F)cc1 | inactive: 109%
43 | O=C(N/N=C/c1ccc(F)cc1)c1ccc(OCc2ccccc2)cc1 | inconclusive: 129%
44 | O=C1CCC(c2ccccc2)(c2ccccc2)CC1 | inconclusive: 36.6%
45 | COc1ccc2c(c1)c(C(=O)N/N=C/c1cccc(Br)c1)c(C)n2C | inconclusive: 141%
46 | COc1ccc(C2C(C#N)=C(C)NC3=C2C(=O)CC(C)(C)C3)c(OC)c1 (stereo unspecified) | inactive: 98.5%

Row | SMILES | binding response (% of control)
47 | CCc1ccc(-c2cc(C(=O)N/N=C/c3c[nH]c4ccccc34)[nH]n2)cc1 | inconclusive: 92.8%
48 | CC1(C)OC(=O)C(=Cc2ccc(-c3ccc(Cl)c(C(=O)O)c3)o2)C(=O)O1 | inconclusive: 88.4%
49 | S=C(NCc1ccco1)NC1CCCc2ccccc21 (stereo unspecified) | inconclusive: 97.5%
50 | CN(CCO)CC(O)Cn1cnc2c1c(=O)n(C)c(=O)n2C (stereo unspecified) (tested in a mixture with another compound) | inactive: 99.9%
51 | O=C(CCCn1c(=S)[nH]c2ccsc2c1=O)Nc1ccc2c(c1)OCCO2 | inactive: 108%
52 | CCc1ccc(CN(C)CC(=O)Nc2sccc2C#N)cc1 | inactive: 98.1%
53 | O=C(/C=C/c1cccnc1)c1ccc(O)cc1 | inconclusive: 90.4%
54 | O=C(CN1CCN(Cc2ccccc2)CC1)Nc1ccc(N2CCOCC2)cc1 | inconclusive: 97.3%
55 | NC(=O)C1=C[C@@H](c2csc3ccccc23)C[C@@H](OCc2ccc(CO)cc2)O1 | inconclusive: 113%
56 | Cc1ccc(OCc2nc(-c3ccccc3)no2)cc1 | inconclusive: 93.2%
57 | Cc1cc(C)c(N=Cc2c(O)n(-c3nccs3)c(=O)c3ccccc23)c(C)c1 | inactive: 96.4%
58 | Cc1ccc(C23CC4CC(CC(CN)(C4)C2)C3)cc1 | inconclusive: 84.9%
59 | COc1cc(CO)ccc1OCc1ccc(Cl)nc1 | inconclusive: 71.7%
60 | CC1(OC(=O)CCc2ccccc2)C(=O)C=C2C=C(c3ccc(C#N)cc3)N(C(CO)CO)C=C2C1=O (stereo unspecified) | inconclusive: 92.5%
61 | O=C(NCCCN1CCOCC1)C(=O)N/N=C/c1cccc2ccccc12 | inconclusive: 64.6%
62 | Cc1ccc(S(=O)(=O)NCCC(=O)OCC(=O)NC(=O)c2cccn2C)cc1 | inconclusive: 96.2%
63 | CCOC(=O)C1=C(C)NC(C)=C(C(=O)OCC)C1C(=O)OCC(=O)N(C)C | inconclusive: 123%
64 | O=c1c2ccccc2c(C=NC2CCS(=O)(=O)C2)c(O)n1-c1ccccc1 (stereo unspecified) | inactive: 91.3%
65 | Cc1ccc(C(=O)Nc2cccc(C(F)(F)F)c2)cc1NC(=O)c1ccno1 | inconclusive: 122%
66 | CCC(=O)Oc1ccc(C(=O)Nc2ccc3c(c2)OCO3)cc1 | inactive: 100%
67 | O=[N+]([O-])c1ccc(-c2nc(C(Cl)Cl)c3ccccc3n2)cc1 | inconclusive: 111%
68 | Cc1ccc(C)c(NC(=O)CN(C)C(=O)c2cc3ccccc3o2)c1 | inactive: 102%
69 | CCCCCCCN1C2=NCCN2c2ccccc21 | inconclusive: 110%

Given with tabs: entries from further up.
Row	SMILES	binding response (% of control)
18	C=C(C)C1CC=C(C)/C(=N\NC(=O)CCC(=O)Nc2ccc(C)c(C)c2)C1 (stereo unspecified)	inconclusive: 116%
19	Cc1cc(C)n(-c2nnc3c4ccccc4n(C)c3n2)n1	inconclusive: 103%
22	Cc1sc2nc(CC(=O)NN)[nH]c(=O)c2c1C	inconclusive: 98.1%
30	C=CCn1cnc2c(nnn2-c2ccc(OC)c(OC)c2)c1=O	inconclusive: 104%

Following part.

Row | SMILES | binding response (% of control)
70 | Clc1ccc(-c2nc(-c3cc4cc(Cl)ccc4o3)cs2)cc1 | inconclusive: 108%
71 | Cc1ccc2nc(-c3ccc(NC(=O)CSCC(=O)O)cc3)sc2c1 | inconclusive: 91.9%
72 | CC(C)C[C@H](NC(=O)NCc1ccc(Cl)cc1)C(=O)O | inactive: 100%
73 | C/C(=N\Nc1ccccn1)c1cccs1 | inconclusive: 117%
74 | CCc1cccc(NC(=O)Cn2c3[n+](c4ccc(C(F)(F)F)cc42)CCCCC3)c1 | inactive: 126%
75 | Nc1ccc(N2CCN(C(=O)c3cccs3)CC2)cc1 | inactive: 85.1%
76 | O=C1c2ccccc2C(=O)N1CN(C(=O)c1ccccc1)c1ccc(O)cc1 | inactive: 96.6%
77 | CCOc1ccc(CCNC(=O)C2CCCN2C(=O)OCc2ccccc2)cc1OCC (stereo unspecified) | inactive: 99%
78 | CCCc1cc(C(=O)Nc2ccn(Cc3ccc(C)cc3)n2)no1 | inconclusive: 106%
79 | CC[n+]1c(/C=C2\Sc3ccccc3N2C)ccc2cccc(C)c21 | inconclusive: 112%
80 | Cc1onc(-c2ccccc2)c1-c1ccnn1S(=O)(=O)c1ccc(Cl)cc1 | inconclusive: 122%
81 | O=C(CN1C(=O)NC2(CCCCCCC2)C1=O)N1CCN(C(=O)c2ccco2)CC1 | inactive: 118%
82 | Cc1ccccc1C(=O)N1CCN(c2ccc(NC(=S)NC(=O)c3cccs3)cc2)CC1 | inconclusive: 85.7%
83 | COCCSc1nnc(NC(=O)c2cc(OC)c(OC)cc2[N+](=O)[O-])s1 | inconclusive: 105%
84 | COc1ccc(CC(=O)OCC(=O)Nc2cc(S(=O)(=O)N3CCOCC3)ccc2N2CCCC2)cc1 | inconclusive: 87.7%
85 | CC1=C(C#N)C(=O)NC(=O)/C1=C/c1ccc(-c2ccc(S(N)(=O)=O)cc2)o1 | inconclusive: 102%
86 | COc1ccc(C/C(C)=N\NC(=O)c2cn(C)c3ccccc23)cc1OC | inconclusive: 72.2%
87 | CCCCCc1nnc(NC(=O)c2ccc(=O)n(C)n2)s1 | inconclusive: 104%
88 | COC(=O)c1ccc(-c2ncc[nH]2)cc1 | inactive: 101%
89 | Cc1[nH]nc(Sc2ccccn2)c1[N+](=O)[O-] | inactive: 98.4%
90 | NCCc1c(-c2ccccc2)n(-c2ccccc2)c2ccccc12 | inconclusive: 97.9%
91 | COc1ccccc1/C=N/Nc1cc(C)nc(N2CCOCC2)n1 | inconclusive: 69%
